Experimental data: PubChem BioAssay AID652259 (Drosophila RNAi Screening Center, 2013)
The screen tested about 22,000 reagents; below is a random part of those with a known target gene and a result. Over the whole deposit, 233 (1.1%) were called active. 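Light values are raw, unnormalised plate reads; the ratio scores behind the reporter calls were not deposited.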 Not given: the amount of reagent, the time to read-out, the dose of the treatment.

Aim: 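Knock-downs that push a Wingless-driven reporter up or down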 (primary screen)
System: Drosophila clone 8 imaginal disc epithelial cells
Reagents: long dsRNA against Drosophila genes
Treatment: pathway stimulated by co-transfected Wingless expression plasmid
Read-out: 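Firefly luciferase from a tcf-site Wingless reporter, measured alongside co-transfected Renilla luciferase that tracks transfection; pathway stimulated by a Wingless plasmid; the firefly-to-Renilla ratio is not deposited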
Scale: firefly reporter light: higher = more Wg reporter light, before normalisation; Renilla control light: higher = more transfected or surviving cells
Hit rule: 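a knock-down is a candidate when at least two out of four statistical tests show it departing from its plate mean; one test alone signals a weak candidate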
Calls: active = candidate regulator (raises or lowers reporter); inactive = not a candidate

{"gene knocked down": "CG2291", "DRSC id": "DRSC06836", "firefly reporter light, replicate 1": 3490, "firefly reporter light, replicate 2": 8345, "Renilla control light, replicate 1": 658, "Renilla control light, replicate 2": 2963, "Call": "inactive"}
{"gene knocked down": "blw (bellwether)", "DRSC id": "DRSC04675", "firefly reporter light, replicate 1": 2833, "firefly reporter light, replicate 2": 7734, "Renilla control light, replicate 1": 531, "Renilla control light, replicate 2": 2000, "Call": "inactive"}
{"gene knocked down": "CG4611", "DRSC id": "DRSC10434", "firefly reporter light, replicate 1": 1412, "firefly reporter light, replicate 2": 11259, "Renilla control light, replicate 1": 1209, "Renilla control light, replicate 2": 4368, "Call": "inactive"}
{"gene knocked down": "CG30355", "DRSC id": "DRSC21958", "firefly reporter light, replicate 1": 4.79e5, "firefly reporter light, replicate 2": 5.03e5, "Renilla control light, replicate 1": 1.88e5, "Renilla control light, replicate 2": 1.87e5, "Call": "inactive"}
{"gene knocked down": "mRpL4 (mitochondrial ribosomal protein L4)", "DRSC id": "DRSC03562", "firefly reporter light, replicate 1": 6117, "Renilla control light, replicate 1": 1680, "Call": "inactive"}
{"gene knocked down": "Ctl1 (Choline transporter-like 1)", "DRSC id": "DRSC08303", "firefly reporter light, replicate 1": 4873, "Renilla control light, replicate 1": 2195, "Call": "inactive"}
{"gene knocked down": "RtGEF (Rho-type guanine nucleotide exchange factor)", "DRSC id": "DRSC03604", "firefly reporter light, replicate 1": 2583, "firefly reporter light, replicate 2": 7239, "Renilla control light, replicate 1": 310, "Renilla control light, replicate 2": 3200, "Call": "inactive"}
{"gene knocked down": "RtGEF (Rho-type guanine nucleotide exchange factor)", "DRSC id": "DRSC22207", "firefly reporter light, replicate 1": 5.08e5, "firefly reporter light, replicate 2": 5.67e5, "Renilla control light, replicate 1": 2.57e5, "Renilla control light, replicate 2": 2.52e5, "Call": "inactive"}

A portion from the list above, as a working copy:
{"gene knocked down": "Ctl1 (Choline transporter-like 1)", "DRSC id": "DRSC08303", "firefly reporter light, replicate 1": 4873, "Renilla control light, replicate 1": 2195, "Call": "inactive"}
{"gene knocked down": "RtGEF (Rho-type guanine nucleotide exchange factor)", "DRSC id": "DRSC03604", "firefly reporter light, replicate 1": 2583, "firefly reporter light, replicate 2": 7239, "Renilla control light, replicate 1": 310, "Renilla control light, replicate 2": 3200, "Call": "inactive"}

Additional entries follow.
{"gene knocked down": "CG4267", "DRSC id": "DRSC00102", "firefly reporter light, replicate 1": 15015, "Renilla control light, replicate 1": 9146, "Call": "inactive"}
{"gene knocked down": "CG4267", "DRSC id": "DRSC00647", "firefly reporter light, replicate 1": 2115, "firefly reporter light, replicate 2": 3522, "Renilla control light, replicate 1": 749, "Renilla control light, replicate 2": 1667, "Call": "inactive"}
{"gene knocked down": "CG7988", "DRSC id": "DRSC16358", "firefly reporter light, replicate 1": 13497, "Renilla control light, replicate 1": 2544, "Call": "inactive"}
{"gene knocked down": "CG11257", "DRSC id": "DRSC06068", "firefly reporter light, replicate 1": 4809, "Renilla control light, replicate 1": 1885, "Call": "inactive"}
